Assay results from the supplement of paper PMC6078165.
The reference is the same well before dosing, and untreated signal decays as well.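 Labels refer to human fibroblasts, largely primary: uterine (C12385, HUF), lung (H6013), bone (Hs27A), adrenal (HADF), skin (WS1), plus mammary HMF and breast cancer-associated Hs343T. Cancer lines are basal-like or mesenchymal-like triple-negative breast cancer. The paper counts as hits responses shifting over 3x the replicate standard deviation. The tissue of the other fibroblasts is not given here.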

Test system: BT20
Assay: relative JC-1 red fluorescence (viability) vs pre-drug, coculture with fibroblast (fraction); higher = more viable cancer cells
Description: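 JC-1 labelled TNBC cells cocultured 1:1 (1,500 cells each) with CellTrace Violet stained primary or stromal fibroblasts in 384-well plates in FluoroBrite medium, treated with one of 42 anticancer drugs at 0.1, 1, 10 or 100 uM. JC-1 red fluorescence (mitochondrial integrity in cancer cells only) was read by plate reader every 8 h for 72 h. Values are normalised to each well's pre-drug value. The stock of one drug was tenfold lower, so its dose labels may be too high.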

CCc1c2c(nc3ccc(OC(=O)N4CCC(N5CCCCC5)CC4)cc13)-c1cc3c(c(=O)n1C2)COC(=O)[C@]3(O)CC [Irinotecan]
relative JC-1 red fluorescence
Conditions	8 h	16 h	24 h	32 h	40 h	48 h	56 h	64 h	72 h
0.1 µM, coculture fibroblast: C12385	0.916	0.865	0.8819	0.8188	0.77	0.751	0.736	0.723	0.716
0.1 µM, coculture fibroblast: H6013	0.925	0.872	0.85793	0.8104	0.7741	0.76	0.755	0.725	0.704
0.1 µM, coculture fibroblast: H6019	0.829	0.795	0.799	0.737	0.695	0.679	0.654	0.625	0.611
0.1 µM, coculture fibroblast: H6076	0.93	0.9076	0.862	0.853	0.846	0.838	0.849	0.859	0.855
0.1 µM, coculture fibroblast: H6231	0.913	0.8856	0.77	0.716	0.667	0.623	0.588	0.569	0.538
0.1 µM, coculture fibroblast: HADF	0.925	0.89	0.834	0.795	0.746	0.705	0.681	0.66	0.628
0.1 µM, coculture fibroblast: HCFa	0.9116	0.8919	0.881	0.817	0.776	0.731	0.703	0.68	0.639
0.1 µM, coculture fibroblast: HCPF	0.935	0.836	0.807	0.7755	0.7509	0.7248	0.69625	0.7013	0.671
0.1 µM, coculture fibroblast: HHSteC	0.91	0.881	0.876	0.798	0.77	0.726	0.701	0.676	0.644
0.1 µM, coculture fibroblast: HMF	0.9321	0.852	0.78	0.732	0.696	0.661	0.64	0.616	0.594
0.1 µM, coculture fibroblast: HPFa	0.93155	0.841	0.81971	0.7147	0.6746	0.6173	0.584	0.547	0.488
0.1 µM, coculture fibroblast: HUF	0.908	0.8141	0.7769	0.698	0.6462	0.6064	0.58	0.565	0.55793
0.1 µM, coculture fibroblast: Hs5	0.926	0.883	0.874	0.867	0.867	0.85	0.833	0.803	0.781
0.1 µM, coculture fibroblast: Hs27A	0.901	0.87	0.8933	0.875	0.818	0.787	0.772	0.746	0.7004
0.1 µM, coculture fibroblast: Hs343T	0.931	0.851	0.7716	0.7277	0.689	0.652	0.616	0.609	0.587
0.1 µM, coculture fibroblast: WS1	0.825	0.772	0.812	0.7575	0.7117	0.712	0.7049	0.703	0.707
1 µM, coculture fibroblast: C12385	0.873	0.8336	0.844	0.792	0.746	0.724	0.706	0.704	0.6948
1 µM, coculture fibroblast: H6013	0.911	0.8637	0.8513	0.779	0.7386	0.7262	0.722	0.7088	0.6921
1 µM, coculture fibroblast: H6019	0.857	0.811	0.8094	0.743	0.71	0.694	0.663	0.639	0.62
1 µM, coculture fibroblast: H6076	0.951	0.887	0.826	0.793	0.786	0.764	0.777	0.776	0.763
1 µM, coculture fibroblast: H6231	0.896	0.856	0.782	0.726	0.6983	0.6551	0.62	0.597	0.573
1 µM, coculture fibroblast: HADF	0.9299	0.8971	0.876	0.81	0.777	0.749	0.732	0.719	0.698
1 µM, coculture fibroblast: HCFa	0.938	0.906	0.888	0.809	0.768	0.734	0.71	0.687	0.647
1 µM, coculture fibroblast: HCPF	0.9654	0.913	0.851	0.8062	0.773	0.75	0.729	0.708	0.684
1 µM, coculture fibroblast: HHSteC	0.91	0.881	0.877	0.799	0.763	0.73	0.707	0.683	0.648
1 µM, coculture fibroblast: HMF	0.773	0.899	0.785	0.71	0.656	0.62	0.58	0.554	0.529
1 µM, coculture fibroblast: HPFa	0.909	0.902	0.924	0.833	0.817	0.772	0.757	0.734	0.681
1 µM, coculture fibroblast: HUF	0.89	0.78689	0.7483	0.65431	0.60143	0.565	0.55	0.54	0.529
1 µM, coculture fibroblast: Hs5	0.841	0.91	0.8374	0.7782	0.743	0.7	0.67	0.641	0.597
1 µM, coculture fibroblast: Hs27A	0.85	0.945	0.903	0.846	0.812	0.806	0.788	0.77	0.724
1 µM, coculture fibroblast: Hs343T	0.964	0.8534	0.768	0.705	0.655	0.612	0.576	0.558	0.533
1 µM, coculture fibroblast: WS1	0.821	0.757	0.708	0.629	0.567	0.543	0.512	0.484	0.473
10 µM, coculture fibroblast: C12385	0.918	0.851	0.857	0.804	0.761	0.737	0.721	0.717	0.704
10 µM, coculture fibroblast: H6013	0.943	0.9204	0.8936	0.8437	0.795	0.78	0.778	0.7616	0.75027
10 µM, coculture fibroblast: H6019	0.88	0.841	0.825	0.763	0.712	0.698	0.67	0.651	0.634
10 µM, coculture fibroblast: H6076	0.877	0.927	0.873	0.862	0.828	0.814	0.816	0.827	0.82
10 µM, coculture fibroblast: H6231	0.888	0.946	0.854	0.7803	0.722	0.66	0.601	0.578	0.531
10 µM, coculture fibroblast: HADF	0.846	0.893	0.8558	0.815	0.781	0.742	0.731	0.707	0.68
10 µM, coculture fibroblast: HCFa	0.908	0.8629	0.829	0.76	0.709	0.669	0.6428	0.6161	0.582
10 µM, coculture fibroblast: HCPF	0.976	0.901	0.847	0.8	0.767	0.725	0.701	0.681	0.649
10 µM, coculture fibroblast: HHSteC	0.9116	0.864	0.836	0.763	0.7	0.662	0.629	0.603	0.573
10 µM, coculture fibroblast: HMF	0.9688	0.9016	0.823	0.773	0.738	0.706	0.681	0.647	0.6243
10 µM, coculture fibroblast: HPFa	0.955	0.895	0.894	0.819	0.8	0.764	0.745	0.717	0.684
10 µM, coculture fibroblast: HUF	0.908	0.819	0.789	0.702	0.652	0.601	0.565	0.54	0.526
10 µM, coculture fibroblast: Hs5	0.849	0.971	0.876	0.824	0.777	0.734	0.704	0.676	0.668
10 µM, coculture fibroblast: Hs27A	0.889	0.766	0.895	0.906	0.931	0.924	0.91	0.898	0.861
10 µM, coculture fibroblast: Hs343T	0.865	0.946	0.88	0.833	0.787	0.746	0.703	0.679	0.644
10 µM, coculture fibroblast: WS1	0.849	0.783	0.773	0.71	0.659	0.646	0.625	0.61	0.597
100 µM, coculture fibroblast: C12385	0.885	0.878	0.873	0.792	0.706	0.676	0.665	0.67	0.668
100 µM, coculture fibroblast: H6013	0.868	0.85	0.933	0.91	0.954	0.88	0.927	0.83	0.92
100 µM, coculture fibroblast: H6019	0.887	0.853	0.872	0.822	0.783	0.791	0.788	0.802	0.815
100 µM, coculture fibroblast: H6076	0.814	0.88	0.927	0.87209	0.81	0.768	0.758	0.759	0.734
100 µM, coculture fibroblast: H6231	0.794	0.966	0.904	0.836	0.783	0.734	0.723	0.709	0.694
100 µM, coculture fibroblast: HADF	0.987	0.9795	0.976	0.935	0.902	0.873	0.893	0.892	0.88
100 µM, coculture fibroblast: HCFa	0.886	0.916	0.97398	0.9119	0.8651	0.838	0.834	0.8257	0.805
100 µM, coculture fibroblast: HCPF	0.809	0.9696	0.9296	0.882	0.844	0.793	0.757	0.738	0.706
100 µM, coculture fibroblast: HHSteC	0.9603	0.837	0.862	0.918	0.874	0.835	0.828	0.822	0.808
100 µM, coculture fibroblast: HMF	0.786	0.87	0.934	0.8424	0.781	0.732	0.696	0.675	0.646
100 µM, coculture fibroblast: HPFa	0.979	0.9706	0.905	0.889	0.886	0.854	0.86	0.857	0.829
100 µM, coculture fibroblast: HUF	0.93	0.887	0.878	0.766	0.722	0.689	0.693	0.696	0.688
100 µM, coculture fibroblast: Hs5	0.9799	0.932	0.899	0.885	0.9	0.894	0.9	0.9	0.893
100 µM, coculture fibroblast: Hs27A	0.823	0.894	0.769	0.866	0.831	0.828	0.75	0.848	0.862
100 µM, coculture fibroblast: Hs343T	0.875	0.843	0.857	0.761	0.679	0.627	0.602	0.5817	0.5569
100 µM, coculture fibroblast: WS1	0.88	0.848	0.851	0.787	0.744	0.723	0.712	0.69	0.682
